Results are given in words; binding and its absence hold for the method and conditions named. Binding seen in cells or lysates may run through a third protein. These calls come from enrichment with a bait or labelling near it, and not all partners need be listed.
B1: Synaptojanin-2-binding protein (protein, UniProt P57105 1-145)
chain: MNGRVDYLVTEEEINLTRGPSGLGFNIVGGTDQQYVSNDSGIYVSRIKENGAAALDGRLQEGDKILSVNGQDLKNLLHQDAVDLFRNAGYAVSLRVQHRLQVQNGPIGHRGEGDPSGIPIFMVLVPVFALTMVAAWAFMRYRQQL
B2: Mannose-6-phosphate isomerase (protein, UniProt P34949 1-423)
chain: MAAPRVFPLSCAVQQYAWGKMGSNSEVARLLASSDPLAQIAEDKPYAELWMGTHPRGDAKILDNRISQKTLSQWIAENQDSLGSKVKDTFNGNLPFLFKVLSVETPLSIQAHPNKELAEKLHLQAPQHYPDANHKPEMAIALTPFQGLCGFRPVEEIVTFLKKVPEFQFLIGDEAATHLKQTMSHDSQAVASSLQSCFSHLMKSEKKVVVEQLNLLVKRISQQAAAGNNMEDIFGELLLQLHQQYPGDIGCFAIYFLNLLTLKPGEAMFLEANVPHAYLKGDCVECMACSDNTVRAGLTPKFIDVPTLCEMLSYTPSSSKDRLFLPTRSQEDPYLSIYDPPVPDFTIMKTEVPGSVTEYKVLALDSASILLMVQGTVIASTPTTQTPIPLQRGGVLFIGANESVSLKLTEPKDLLIFRACCLL
B3: Phosphoserine aminotransferase (protein, UniProt Q9Y617 1-370)
chain: MDAPRQVVNFGPGPAKLPHSVLLEIQKELLDYKGVGISVLEMSHRSSDFAKIINNTENLVRELLAVPDNYKVIFLQGGGCGQFSAVPLNLIGLKAGRCADYVVTGAWSAKAAEEAKKFGTINIVHPKLGSYTKIPDPSTWNLNPDASYVYYCANETVHGVEFDFIPDVKGAVLVCDMSSNFLSKPVDVSKFGVIFAGAQKNVGSAGVTVVIVRDDLLGFALRECPSVLEYKVQAGNSSLYNTPPCFSIYVMGLVLEWIKNNGGAAAMEKLSSIKSQTIYEIIDNSQGFYVCPVEPQNRSKMNIPFRIGNAKGDDALEKRFLDKALELNMLSLKGHRSVGGIRASLYNAVTIEDVQKLAAFMKKFLEMHQL
B4: Adipocyte plasma membrane-associated protein (protein, UniProt Q9HDC9 1-416)
chain: MSEADGLRQRRPLRPQVVTDDDGQAPEAKDGSSFSGRVFRVTFLMLAVSLTVPLLGAMMLLESPIDPQPLSFKEPPLLLGVLHPNTKLRQAERLFENQLVGPESIAHIGDVMFTGTADGRVVKLENGEIETIARFGSGPCKTRDDEPVCGRPLGIRAGPNGTLFVADAYKGLFEVNPWKREVKLLLSSETPIEGKNMSFVNDLTVTQDGRKIYFTDSSSKWQRRDYLLLVMEGTDDGRLLEYDTVTREVKVLLDQLRFPNGVQLSPAEDFVLVAETTMARIRRVYVSGLMKGGADLFVENMPGFPDNIRPSSSGGYWVGMSTIRPNPGFSMLDFLSERPWIKRMIFKLFSQETVMKFVPRYSLVLELSDSGAFRRSLHDPDGLVATYISEVHEHDGHLYLGSFRSPFLCRLSLQAV
B5: Peroxiredoxin-5 (protein, UniProt P30044 53-214)
chain: MAPIKVGDAIPAVEVFEGEPGNKVNLAELFKGKKGVLFGVPGAFTPGCSKTHLPGFVEQAEALKAKGVQVVACLSVNDAFVTGEWGRAHKAEGKVRLLADPTGAFGKETDLLLDDSLVSIFGNRRLKRFSMVVQDGIVKALNVEPDGTGLTCSLAPNIISQL
B6: Syntaxin-12 (protein, UniProt Q86Y82 1-276)
chain: MSYGPLDMYRNPGPSGPQLRDFSSIIQTCSGNIQRISQATAQIKNLMSQLGTKQDSSKLQENLQQLQHSTNQLAKETNELLKELGSLPLPLSTSEQRQQRLQKERLMNDFSAALNNFQAVQRRVSEKEKESIARARAGSRLSAEERQREEQLVSFDSHEEWNQMQSQEDEVAITEQDLELIKERETAIRQLEADILDVNQIFKDLAMMIHDQGDLIDSIEANVESSEVHVERATEQLQRAAYYQKKSRKKMCILVLVLSVIILILGLIIWLVYKTK
B7: Protein disulfide-isomerase TMX3 (protein, UniProt Q96JJ7 25-454)
chain: KGFVEDLDESFKENRNDDIWLVDFYAPWCGHCKKLEPIWNEVGLEMKSIGSPVKVGKMDATSYSSIASEFGVRGYPTIKLLKGDLAYNYRGPRTKDDIIEFAHRVSGALIRPLPSQQMFEHMQKRHRVFFVYVGGESPLKEKYIDAASELIVYTYFFSASEEVVPEYVTLKEMPAVLVFKDETYFVYDEYEDGDLSSWINRERFQNYLAMDGFLLYELGDTGKLVALAVIDEKNTSVEHTRLKSIIQEVARDYRDLFHRDFQFGHMDGNDYINTLLMDELTVPTVVVLNTSNQQYFLLDRQIKNVEDMVQFINNILDGTVEAQGGDSILQRLKRIVFDAKSTIVSIFKSSPLMGCFLFGLPLGVISIMCYGIYTADTDGGYIEERYEVSKSENENQEQIEESKEQQEPSSGGSVVPTVQEPKDVLEKKKD
B8: Protein jagunal homolog 1 (protein, UniProt Q8N5M9 1-183)
chain: MASRAGPRAAGTDGSDFQHRERVAMHYQMSVTLKYEIKKLIYVHLVIWLLLVAKMSVGHLRLLSHDQVAMPYQWEYPYLLSILPSLLGLLSFPRNNISYLVLSMISMGLFSIAPLIYGSMEMFPAAQQLYRHGKAYRFLFGFSAVSIMYLVLVLAVQVHAWQLYYSKKLLDSWFTSTQEKKHK
B9: S-methyl-5′-thioadenosine phosphorylase (protein, UniProt Q13126 1-283)
chain: MASGTTTTAVKIGIIGGTGLDDPEILEGRTEKYVDTPFGKPSDALILGKIKNVDCVLLARHGRQHTIMPSKVNYQANIWALKEEGCTHVIVTTACGSLREEIQPGDIVIIDQFIDRTTMRPQSFYDGSHSCARGVCHIPMAEPFCPKTREVLIETAKKLGLRCHSKGTMVTIEGPRFSSRAESFMFRTWGADVINMTTVPEVVLAKEAGICYASIAMATDYDCWKEHEEAVSVDRVLKTLKENANKAKSLLLTTIPQIGSTEWSETLHNLKNMAQFSVLLPRH
B10: Cystatin-B (protein, UniProt P04080 1-98)
chain: MMCGAPSATQPATAETQHIADQVRSQLEEKENKKFPVFKAVSFKSQVVAGTNYFIKVHVGDEDFVHLRVFQSLPHENKPLTLSNYQTNKAKHDELTYF

Protein sequences, listed by entry. Tags and fused reporters are not part of them. Lines headed by an entry give the natural chain unless they say otherwise; changes in a name come on top. Residues count along the entry.
UniProt Q9NYG2: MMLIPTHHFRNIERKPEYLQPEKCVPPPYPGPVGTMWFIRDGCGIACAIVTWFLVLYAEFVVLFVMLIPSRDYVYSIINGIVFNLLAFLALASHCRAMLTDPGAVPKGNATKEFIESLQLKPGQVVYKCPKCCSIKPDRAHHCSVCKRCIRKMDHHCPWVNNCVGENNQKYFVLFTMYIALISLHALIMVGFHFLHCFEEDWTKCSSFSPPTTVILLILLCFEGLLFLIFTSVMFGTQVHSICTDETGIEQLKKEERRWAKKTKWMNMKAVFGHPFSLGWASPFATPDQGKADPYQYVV
UniProt P05091, residues 18-517: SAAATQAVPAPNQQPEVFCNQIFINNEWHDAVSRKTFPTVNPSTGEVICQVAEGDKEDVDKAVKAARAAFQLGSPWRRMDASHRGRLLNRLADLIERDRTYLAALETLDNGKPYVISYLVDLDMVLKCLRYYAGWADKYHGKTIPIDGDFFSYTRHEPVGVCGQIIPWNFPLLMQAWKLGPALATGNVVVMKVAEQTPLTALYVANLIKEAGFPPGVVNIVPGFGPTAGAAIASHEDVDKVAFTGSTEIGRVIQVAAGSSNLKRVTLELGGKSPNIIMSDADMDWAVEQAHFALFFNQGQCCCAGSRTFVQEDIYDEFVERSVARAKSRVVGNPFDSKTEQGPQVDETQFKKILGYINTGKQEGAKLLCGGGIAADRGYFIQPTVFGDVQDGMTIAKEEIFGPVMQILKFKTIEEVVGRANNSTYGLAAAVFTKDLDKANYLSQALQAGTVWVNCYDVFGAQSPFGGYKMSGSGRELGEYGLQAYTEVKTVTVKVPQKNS
UniProt Q8NE71: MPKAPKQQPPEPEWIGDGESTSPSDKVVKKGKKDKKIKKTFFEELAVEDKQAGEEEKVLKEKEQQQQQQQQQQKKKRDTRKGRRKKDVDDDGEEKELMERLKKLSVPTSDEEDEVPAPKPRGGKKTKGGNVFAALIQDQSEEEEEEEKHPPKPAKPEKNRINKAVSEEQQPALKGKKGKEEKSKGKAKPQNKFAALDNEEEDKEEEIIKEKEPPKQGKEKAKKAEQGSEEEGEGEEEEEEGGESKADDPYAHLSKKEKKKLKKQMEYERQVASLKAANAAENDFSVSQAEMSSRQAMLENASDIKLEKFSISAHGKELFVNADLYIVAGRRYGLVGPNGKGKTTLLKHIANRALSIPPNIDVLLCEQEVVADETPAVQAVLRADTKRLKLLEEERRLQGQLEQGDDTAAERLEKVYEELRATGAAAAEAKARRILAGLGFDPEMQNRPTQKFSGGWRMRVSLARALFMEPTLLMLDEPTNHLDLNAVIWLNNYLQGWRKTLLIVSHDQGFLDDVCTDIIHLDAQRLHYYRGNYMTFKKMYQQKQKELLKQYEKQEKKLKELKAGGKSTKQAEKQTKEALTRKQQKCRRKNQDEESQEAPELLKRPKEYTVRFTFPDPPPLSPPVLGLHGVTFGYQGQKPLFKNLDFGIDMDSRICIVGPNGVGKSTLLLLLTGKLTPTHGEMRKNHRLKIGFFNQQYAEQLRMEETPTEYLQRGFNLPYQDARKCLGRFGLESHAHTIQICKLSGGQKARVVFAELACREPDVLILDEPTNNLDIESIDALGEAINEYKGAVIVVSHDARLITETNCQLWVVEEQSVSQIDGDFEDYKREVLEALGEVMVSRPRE

Target: human DHHC3 (hDHHC3) with a C-terminal Twin-Strep tag (human) (UniProt Q9NYG2)
Assay: affinity purification with mass spectrometry; purified C-terminal Strep-tagged hDHHC3 on Strep-Tactin resin incubated with HEK 293T lysate (RIPA) at 4 °C for 30 min; washed with buffer W, eluted with desthiobiotin; LC-MS/MS; Strep-Tactin beads alone as negative control; hits detected repeatedly in three experiments; only the target purified

binding, binds:
Sodium/potassium-transporting ATPase subunit beta-3 (from UniProt P54709 1-279)
Aldehyde dehydrogenase (from UniProt P05091 18-517)
ATP-binding cassette subfamily F member 1 (from UniProt Q8NE71 1-845)
B1
B2
B3
B4
B5
B6
B7
B8
B9
B10

Source: article PMC9332573
